Mtb growth Cornell: 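Whole-cell assay for inhibitors of Mycobacterium tuberculosis growth, labelled Cornell in the record; the read-out is not stated. The concentration is filed as 10 mM, unlikely as a test dose, so the dose is not known. The record gives no direction; compounds strong in two other growth screens of this library score well above the rest, so higher reads as stronger inhibition. Of about 53,000 compounds tested this way, about 900 (1.7%) reached 50% or more in at least one test.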
Mtb heat-shock: 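Assay on Mycobacterium tuberculosis, filed only as a heat shock assay from Cornell; the read-out is not stated. The concentration is filed as 10 mM, unlikely as a test dose, so the dose is not known. The record gives no direction; compounds that gave an IC50 in retests scored well above the rest, so higher reads as stronger inhibition. Of about 69,000 compounds tested this way, about 930 (1.4%) reached 50% or more in at least one test.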

The filed quantity is “Percent Effect” (%).
How 0% and 100% were set is not recorded. Most values in the screen are low, and negative values occur.
The compounds are a random part of those screened.
A dash means the value is not listed here; it may have been measured.

structure,Mtb growth Cornell,Mtb heat-shock
Cc1cc(NC(=O)NCCc2cscn2)nn1C,-6.915,-3.98
NC(=O)CN1CCCC(Cc2ccc(N)nn2)C1 (centres undefined),-61.17,-18.28
O=C(CC1CCC2(CC1)CCN(Cc1cccnc1)CC2)N1CC=CC1.O=C(O)C(F)(F)F.O=C(O)C(F)(F)F,-,-16.75
O=C(O)C(F)(F)F.[H][C@@]12OCCN(Cc3ccc(F)c(F)c3)[C@@]1([H])CC[C@@H]2OC,-46.02,-30.05
CN(C(=O)c1ccncc1F)c1ccccc1S(C)(=O)=O,-26.54,-4.065
CCn1nc(C)c2nn(CC(=O)NC3CCSCC3)cc21,-2.576,-1.52
Cc1nccn1CC(=O)N1CC(Cc2nccc3ccn(C)c23)C1,-15.93,-5.457
O=C(Cn1cc(C2CC2)nn1)N(Cc1ccco1)Cc1cccs1,-,-20.86
COC(=O)[C@@H]1C[C@@H](NC(=O)CN2C(=O)N(C)Cc3ccccc32)CN1C,3.535,-6.126
Cc1nccn1CCC1CCNCC1.Cl.Cl,0.3814,17.41
CCNc1cc2c(nn1)CCN(C(=O)c1cccnc1N(C)C)C2,-,-21.78
CC(C)CC(=O)N1CCN(Cc2cc(-c3ccncc3)nn2C)CC1,-3.349,-11.22
CC(C)c1nccn1C(C)C(=O)NC1CCN(S(C)(=O)=O)CC1 (centres undefined),-11.2,2.981
CC(=O)Nc1ccc(C(=O)Nc2cnc3n2CCCC3)cc1C,-40.68,-45
CCc1cc(C(=O)N2CCC(c3cc4ncccc4cn3)CC2)on1,0.9035,-7.747
CC(C)(C)c1oc(C(N)=O)cc1CN1CCCCC(N)C1 (centres undefined),-,-5.156
Cc1ccc(CCC(=O)N2CCCC(n3cncn3)C2)c(C)c1 (centres undefined),-,-8.966
Cc1cc(NC(=O)CN2CCN(C3CCCC3)C(=O)C2)nn1C,12.31,-2.488
COCCN1CCC(NCc2cccnc2)C1 (centres undefined),3.294,-19.76
CCCC(=O)N(C)C(c1cccc(F)c1)c1ccccn1 (centres undefined),-,-0.1186
COCc1nc(C(=O)N2CCCC2c2cc(C)no2)cs1 (centres undefined),-26.04,-4.648
O=C(c1cnccn1)N1CCc2c(COCC3CC3)cncc2C1,24.04,-4.262
Cc1nc(C2CCCN(C(=O)CN3CCCNC3=O)C2)sc1C (centres undefined),-,8.984
OCC(CO)Nc1nc(C(F)F)nc2ccccc12,4.626,8.852
NC(=O)c1cnc(NC2CC2)nc1CCNC(=O)Cc1ccccc1,2.295,22.03
CCCNC(=O)c1ncn2c1CN(CC(C)C)S(=O)(=O)c1ccccc1-2,-19.11,-22.57
[H][C@@]12OCCN(C(=O)COc3ccc(F)cc3)[C@@]1([H])CC[C@@H]2OCC1CC1,-6.551,37.57
CN1CC(C(=O)N2CCN(c3cccc(Cl)c3)C(=O)C2)NC1=O (centres undefined),-85.6,19.78
COc1ccc(-c2nc(CN3CCCC(OC)C3)c(C)o2)c(F)c1 (centres undefined),56.05,93.73
Fc1ccc(-c2nnc(CN3CCCC3Cn3cncn3)o2)cc1 (centres undefined),16.75,21.81
O=C(O)C(F)(F)F.O=C(O)C(F)(F)F.O=C1N(c2cccnc2)CCC12CCCN(Cc1ccoc1)C2 (centres undefined),13.57,-30.84
COCCC1CCCCN1C(=O)c1coc(COc2ccccc2F)n1 (centres undefined),17.07,-6.051
CSc1ccc(CNC(c2ccc(F)cc2)c2nccn2C)cc1 (centres undefined),-,112.9
CC(C)CC(C)NC1CCN(c2ccc(-c3cscn3)cc2)CC1 (centres undefined),-18.77,0.85
O=C(Cc1cccc2cccnc12)N1CCCN(c2cccnn2)CC1,-37.68,6.344
CCC(NC1CCN(C(=O)c2ccccc2)CC1)c1cccs1 (centres undefined),33.19,-18.03
Cc1n[nH]cc1CNCC1(c2ccccc2Cl)CCOCC1,-,-26.05
Cc1cc(-c2cnc(C3CC3)nc2CN(C)C(=O)c2ccccn2)on1,-5.854,-3.527
Cc1cccc(CNC2CCCc3c2cnn3Cc2ccccc2)c1.Cl (centres undefined),-,-5.892
CCN(CC)S(=O)(=O)NC1CCN(c2ccc(OC)cc2)CC1,-0.08699,-6.276
O=C(O)C(F)(F)F.[H][C@@]12COC[C@]1(COc1ccccn1)CN(S(=O)(=O)C1CC1)C2,15.27,-12.78
COCCN1CCCC2(CCN(c3ncc(Cl)cc3Cl)C2)C1=O (centres undefined),-,17.77

Repeated from the top, 5 entries:

structure,Mtb growth Cornell,Mtb heat-shock
Cc1cc(NC(=O)NCCc2cscn2)nn1C,-6.915,-3.98
NC(=O)CN1CCCC(Cc2ccc(N)nn2)C1 (centres undefined),-61.17,-18.28
O=C(CC1CCC2(CC1)CCN(Cc1cccnc1)CC2)N1CC=CC1.O=C(O)C(F)(F)F.O=C(O)C(F)(F)F,-,-16.75
O=C(O)C(F)(F)F.[H][C@@]12OCCN(Cc3ccc(F)c(F)c3)[C@@]1([H])CC[C@@H]2OC,-46.02,-30.05
CN(C(=O)c1ccncc1F)c1ccccc1S(C)(=O)=O,-26.54,-4.065

Data taken from ChEMBL document CHEMBL3988442, “University of Dundee, Small-Polar-MMV Screening Library” (2021).